In paper PMC2646837:
Results are given in words; binding and its absence hold for the method and conditions named. Tags and fused reporters may be left off the sequences shown.

Biological target: Endo-β-N-acetylglucosaminidase A from Arthrobacter protophormiae (Arthrobacter protophormiae) (UniProt Q9ZB22)
Test: crystal structure; methylated native Endo-A, space group P1, four molecules in the asymmetric unit, refined at 2.0 Å; crystals from PEG 8000, calcium acetate, glycerol; both purified

binding: no binding
B1: Endo-β-N-acetylglucosaminidase A from Arthrobacter protophormiae (enzyme, UniProt Q9ZB22 25-645)
chain: STYNGPLSSHWFPEELAQWEPDSDPDAPFNRSHVPLEPGRVANRVNANADKDAHLVSLSALNRHTSGVPSQGAPVFYENTFSYWHYTDLMVYWAGSAGEGIIVPPSADVIDASHRNGVPILGNVFFPPTVYGGQLEWLEQMLEQEEDGSFPLADKLLEVADYYGFDGWFINQETEGADEGTAEAMQAFLVYLQEQKPEGMHIMWYDSMIDTGAIAWQNHLTDRNKMYLQNGSTRVADSMFLNFWWRDQRQSNELAQALGRSPYDLYAGVDVEARGTSTPVQWEGLFPEGEKAHTSLGLYRPDWAFQSSETMEAFYEKELQFWVGSTGNPAETDGQSNWPGMAHWFPAKSTATSVPFVTHFNTGSGAQFSAEGKTVSEQEWNNRSLQDVLPTWRWIQHGGDLEATFSWEEAFEGGSSLQWHGSLAEGEHAQIELYQTELPISEGTSLTWTFKSEHGNDLNVGFRLDGEEDFRYVEGEQRESINGWTQWTLPLDAFAGQTITGLAFAAEGNETGLAEFYIGQLAVGADSEKPAAPNVNVRQYDPDPSGIQLVWEKQSNVHHYRVYKETKHGKELIGTSAGDRIYLEGLVEESKQNDVRLHIEALSETFVPSDARMIDIKSGSF
modifications: methylated (the protein of the 2.0 Å refined model; residues not stated)
